# In patent publication US5776886A, “Intravaginal preparation containing physiologically active peptide” (Teikoku Seiyaku Kabushiki Kaisha, priority 1993, dated 1998):
# Further values from the same series stand in other lists.
# Tested on: calcium level in the serum
# Assay: Experiment 4: effects of the concentration of sucrose fatty acid ester on serum calcium reduction
# Assay type: in vivo, Wistar rats
# Settings: citric acid 100 mg per 5.00 g, intravaginal suppository 20 μg, rats
# Description: An intravaginal suppository was administered into the rat's vagina, and the blood was collected periodically (2, 4 and 6 hours after administration of the test preparation).
# The serum was separated, and the calcium level in the serum was determined by using a kit for determination of calcium (Calcium C Test Wako; manufactured by Wako Pure Chemical Industries, Ltd.) (n=3).
# Human calcitonin (2 mg) was precisely measured, and thereto were added citric acid (100 mg) and Ryoto-Sugar Ester S-970 (50 mg, 100 mg or 400 mg), and the mixture was mixed well.
# In the same manner as in Experiment 1, each intravaginal suppository was administered to the rat's vagina, and the blood was collected periodically (2 and 4 hours after administration of intravaginal suppository), and the calcium level in the serum thereof was determined (n=3).
substance,measurement,setting,value
Human calcitonin,Reduction rate (%) of calcium level in the serum,"sucrose fatty acid ester (S-970) 1 w/w %, 4 hr",16.5%
same,Reduction rate (%) of calcium level in the serum,"sucrose fatty acid ester (S-970) 2 w/w %, 2 hr",8.0%
same,Reduction rate (%) of calcium level in the serum,"sucrose fatty acid ester (S-970) 2 w/w %, 4 hr",18.2%
same,Reduction rate (%) of calcium level in the serum,"sucrose fatty acid ester (S-970) 8 w/w %, 2 hr",21.8%
same,Reduction rate (%) of calcium level in the serum,"sucrose fatty acid ester (S-970) 8 w/w %, 4 hr",17.5%
